Measurements reported in PubChem BioAssay AID1259308 (NCATS, 2017)

- Test: 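Candidate targets for better recombinant protein yield in mammalian cells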 (primary screen)
- System: human HEK293 embryonic kidney cells stably expressing firefly luciferase (HEK-CMV-Luc2-Hygro)
- Knock-down reagent: single siRNA against human genes, 0.8 pmol siRNA per well
- Timing: 72 h
- Read-out: 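Reporter luminescence and viable-cell signal on separate replicate plates, given as percent of non-targeting control and median/MAD z-scores, plus per-cell luciferase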
- Direction: total luciferase, z-score and total luciferase, % of control: higher = more reporter protein produced; luciferase per cell, z-score: higher = more reporter output per viable cell
- Hit rule: 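An siRNA counts as active if its total luciferase robust z-score exceeds 3; genes with two or more such siRNAs out of three were retested with fresh siRNAs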
- Meaning of the calls: active = raised luciferase; inactive = no rise
The whole screen tested about 59,000 reagents; shown is a random part of them. Over the whole deposit, about 1,510 (2.6%) got an active call. 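Calls use total luciferase alone and ignore viability, so some active siRNAs may act by altering cell number.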 Reagents against one gene are numbered here. Not all columns of the deposit are shown.

Target gene	siRNA no.	total luciferase, z-score	total luciferase, % of control	luciferase per cell, z-score	activity call
EXTL2 (exostosin like glycosyltransferase 2)	1	0.133	84.5	0.309	inactive
EXTL2 (exostosin like glycosyltransferase 2)	2	-2.11	39.9	-2.73	inactive
EXTL2 (exostosin like glycosyltransferase 2)	3	1.21	106	0.396	inactive
LOC645485	1	-1.48	52.5	-1.17	inactive
LOC645485	2	-0.0905	80.1	-0.54	inactive
LOC645485	3	0.984	101	1.04	inactive
PRR35 (proline rich 35)	1	-0.378	74.4	-0.359	inactive
PRR35 (proline rich 35)	2	-0.555	70.8	-0.336	inactive
PRR35 (proline rich 35)	3	0.801	97.8	1.56	inactive
MFSD2A (MFSD2 lysolipid transporter A, lysophospholipid)	1	0.555	92.9	-0.067	inactive
MFSD2A (MFSD2 lysolipid transporter A, lysophospholipid)	2	1.77	117	0.704	inactive
MFSD2A (MFSD2 lysolipid transporter A, lysophospholipid)	3	-1.03	61.5	-1.23	inactive
KRT38 (keratin 38)	1	-2.78	26.6	-3.05	inactive
KRT38 (keratin 38)	2	0.57	93.2	0.44	inactive
KRT38 (keratin 38)	3	-1.5	52.1	-1.25	inactive
ARID4A (AT-rich interaction domain 4A)	1	0.00671	82	0.142	inactive
ARID4A (AT-rich interaction domain 4A)	2	-0.957	62.9	-1.15	inactive
ARID4A (AT-rich interaction domain 4A)	3	0.318	88.2	0.688	inactive
INHBA (inhibin subunit beta A)	1	-1.14	59.2	-0.345	inactive
INHBA (inhibin subunit beta A)	2	-1.13	59.4	-1.4	inactive
INHBA (inhibin subunit beta A)	3	-1.98	42.5	-2.27	inactive
ZDHHC21 (zDHHC palmitoyltransferase 21)	1	-0.131	79.3	0.202	inactive
ZDHHC21 (zDHHC palmitoyltransferase 21)	2	0.618	94.2	0.463	inactive
ZDHHC21 (zDHHC palmitoyltransferase 21)	3	3.31	148	2.34	active
NEURL2 (neuralized E3 ubiquitin protein ligase 2)	1	1.12	104	0.886	inactive
NEURL2 (neuralized E3 ubiquitin protein ligase 2)	2	2.29	127	0.945	inactive
NEURL2 (neuralized E3 ubiquitin protein ligase 2)	3	2.48	131	1.67	inactive
SLC50A1	1	-1.39	54.2	0.00863	inactive
SLC50A1	2	-1.23	57.5	-1.19	inactive
SLC50A1	3	-0.633	69.3	-0.19	inactive
OR7E154P	1	-0.28	76.3	-0.673	inactive
OR7E154P	2	-0.175	78.4	0.218	inactive
OR7E154P	3	-0.153	78.8	0.0291	inactive
CAPN10 (calpain 10)	1	-0.386	74.2	-0.574	inactive
CAPN10 (calpain 10)	2	-2.69	28.4	-1.97	inactive
CAPN10 (calpain 10)	3	-1.73	47.6	-1.63	inactive
TRIM49 (tripartite motif containing 49)	1	-0.581	70.3	-0.319	inactive
TRIM49 (tripartite motif containing 49)	2	-0.912	63.8	-0.986	inactive
TRIM49 (tripartite motif containing 49)	3	-0.185	78.2	0.21	inactive
ACTA1 (actin alpha 1, skeletal muscle)	1	3.71	156	2.23	active
ACTA1 (actin alpha 1, skeletal muscle)	2	2.71	136	3.19	inactive
ACTA1 (actin alpha 1, skeletal muscle)	3	1.11	104	0.656	inactive
MAP1A (microtubule associated protein 1A)	1	0.471	91.3	0.2	inactive
MAP1A (microtubule associated protein 1A)	2	-0.923	63.5	-0.938	inactive
MAP1A (microtubule associated protein 1A)	3	-2.11	40	-2.38	inactive
SNRPB (small nuclear ribonucleoprotein polypeptides B and B1)	1	5.88	199	5.4	active
SNRPB (small nuclear ribonucleoprotein polypeptides B and B1)	2	6.53	212	5.57	active
SNRPB (small nuclear ribonucleoprotein polypeptides B and B1)	3	3.84	158	3.72	active
DBT (dihydrolipoamide branched chain transacylase E2)	1	0.137	84.6	0.468	inactive
DBT (dihydrolipoamide branched chain transacylase E2)	2	-0.22	77.5	-0.606	inactive
DBT (dihydrolipoamide branched chain transacylase E2)	3	0.718	96.2	-0.0465	inactive
KRT8P3 (keratin 8 pseudogene 3)	1	0.606	93.9	0.763	inactive
KRT8P3 (keratin 8 pseudogene 3)	2	0.395	89.7	-0.458	inactive
KRT8P3 (keratin 8 pseudogene 3)	3	-0.775	66.5	-0.57	inactive
IL36B (interleukin 36 beta)	1	-0.441	73.1	-0.308	inactive
IL36B (interleukin 36 beta)	2	-0.24	77.1	-0.619	inactive
IL36B (interleukin 36 beta)	3	0.373	89.3	-0.291	inactive

Part of the list above, reformatted:
OR7E154P #3
- total luciferase, z-score: -0.153
- total luciferase, % of control: 78.8
- luciferase per cell, z-score: 0.0291
- activity call: inactive

CAPN10 (calpain 10) #1
- total luciferase, z-score: -0.386
- total luciferase, % of control: 74.2
- luciferase per cell, z-score: -0.574
- activity call: inactive

CAPN10 (calpain 10) #2
- total luciferase, z-score: -2.69
- total luciferase, % of control: 28.4
- luciferase per cell, z-score: -1.97
- activity call: inactive

CAPN10 (calpain 10) #3
- total luciferase, z-score: -1.73
- total luciferase, % of control: 47.6
- luciferase per cell, z-score: -1.63
- activity call: inactive

TRIM49 (tripartite motif containing 49) #1
- total luciferase, z-score: -0.581
- total luciferase, % of control: 70.3
- luciferase per cell, z-score: -0.319
- activity call: inactive
